The results in this text go back to the supplement of paper PMC12009310.

Structures are written as SMILES. Counter-ions that a name gives are not always drawn. ± gives the standard deviation of the averaged measurements. Some of the results follow. Part of the spread comes from offsets between plates or batches.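 Cells from a mouse kidney inner medullary collecting duct line received siRNA against the ciliary gene Rpgrip1l or a non-targeting control. Primary scores are two-run means relative to batch controls. Follow-up hits increased cilia by 2 or more over their matched control; compounds reducing cell number by at least 2 were dropped. The cells are a mouse kidney inner medullary collecting duct line, silenced either for the ciliary gene Rpgrip1l or with a non-targeting control siRNA.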

The test system of one assay is mIMCD3. The assay is described as follows: robust z score of cell number vs plate controls; higher = more cells (less cytotoxic). Conditions: 10 µM; 48 h; siRNA: siScr.
As for `COC(=O)[C@H](NC(=O)c1cc(-c2ccccc2)nc2ccccc12)c1ccccc1`, the “robust z score of cell number” value was -0.615 ± 0.24. Still for that read-out and setting: the result for `CCN1CCC[C@H]1CNC(=O)c1cc(S(N)(=O)=O)ccc1OC` [(S)-(-)-Sulpiride] reads 0.435 ± 0.96; that for `CC(=N)NCc1cccc(CN)c1` [1400W dihydrochloride], -3.3 ± 0.5. Regarding `O=C(O)/C=C/c1ccc(Cn2ccnc2)cc1` [Ozagrel hydrochloride], the “robust z score of cell number” value turned out to be 0.4 ± 0.9.

`CN(C)CCCSc1ccccc1NC(=O)/C=C/c1ccccc1` [Cinanserin hydrochloride]: the “robust z score of cell number” value was -34.5 ± 19. Take `c1ccc(N2CCN(CCCOc3ccc4c(c3)OCO4)CC2)cc1` [BP 554 maleate]: the “robust z score of cell number” value is -8.05 ± 9.2. On to `OC(c1ccccc1)C1CCN(CCc2ccccc2)CC1` (stereo unspecified), for which the “robust z score of cell number” value was -11.4 ± 0.38.

Turning to `COCCOC(=O)C1=C(C)NC(C)=C(C(=O)OC(C)C)C1c1cccc([N+](=O)[O-])c1` (stereo unspecified) [Nimodipine], the “robust z score of cell number” value was -20.1 ± 25. Same read-out and setting: the result for `CC(=O)N[C@@H](Cc1c[nH]c2ccccc12)C(=O)OCc1cc(C(F)(F)F)cc(C(F)(F)F)c1` reads 0.55 ± 2.9; that for `CCc1c2c(nc3ccc(O)cc13)-c1cc3c(c(=O)n1C2)COC(=O)[C@]3(O)CC`, -14.6 ± 13. `COCCCC/C(=N\OCCN)c1ccc(C(F)(F)F)cc1` [Fluvoxamine maleate]: the “robust z score of cell number” value was -3.98 ± 0.6. Same read-out and setting: the figure for `Cn1cc(C2=C(c3ccc(Cl)cc3Cl)C(=O)NC2=O)c2ccccc21` is -11.4 ± 9.1; for `Oc1cc2c(cc1O)CN(C(=S)NCCc1ccc(Cl)cc1)CCC2` [Capsazepine] it is -83.7 ± 45.

On to `NS(=O)(=O)c1cccc2c1c([N+](=O)[O-])cc1nc(O)c(O)nc12`, for which the “robust z score of cell number” value was -3.42 ± 6.5.

In the case of `Clc1ccccc1CNCC1CCC(CNCc2ccccc2Cl)CC1` (stereo unspecified), the “robust z score of cell number” value is -44.9 ± 11. Same read-out and setting: the result for `CO[C@@H]1[C@H](O)[C@@H](CO)O[C@H]1n1cnc2c(NC3CCCCC3)ncnc21` reads -2.01 ± 2.7; that for `OCc1cc(C(O)CNCCCCCCOCCCCc2ccccc2)ccc1O` (stereo unspecified) [Salmeterol], -20.1 ± 8.7; that for `COC(=O)Nc1ccc2[nH]cc(CCNC(C)=O)c2c1`, -2.77 ± 0.41.

Turning to `COC(=O)C[C@](O)(CCCC(C)(C)O)C(=O)O[C@@H]1C(OC)=C[C@]23CCCN2CCc2cc4c(cc2[C@H]13)OCO4` [Homoharringtonine], the “robust z score of cell number” value is -51.6 ± 1.6. As to `CCCOc1ccccc1-c1nc2[nH]nnc2c(=O)[nH]1` [Zaprinast], the “robust z score of cell number” value is -8.6 ± 5.8. Regarding `CCCCCS(=O)(=O)CCCCCCCCCCn1c(-c2ccc(O)cc2)c(C)c2cc(O)ccc21`, the “robust z score of cell number” value is -54.5 ± 29.

Regarding `O=c1c(O)c(-c2ccc(O)cc2)oc2cc(O)cc(O)c12` [Kaempferol], the “robust z score of cell number” value amounted to 0.95 ± 1.4. As to `COc1cc(NC(=O)c2ccccn2)ccc1Cl`, the “robust z score of cell number” value was -9.2 ± 6.

Regarding `CCCCC[C@H](O)/C=C/[C@H]1[C@H](O)CC(=O)[C@@H]1C/C=C\CCCC(=O)O` [Prostaglandin E2], the “robust z score of cell number” value was -4.45 ± 3.7. Same read-out and setting: the figure for `N#Cc1c(O)c2c(-c3ccc(-c4ccccc4O)cc3)csc2[nH]c1=O` is 0.245 ± 3. As for `O=C(/C=C/c1c(C(=O)O)[nH]c2cc(Cl)cc(Cl)c12)Nc1ccccc1` [Gavestinel], the “robust z score of cell number” value came to 2 ± 2.9. Consider `C1CCC2(CC1)CCNCC2` [4,4-Pentamethylenepiperidine hydrochloride], for which the “robust z score of cell number” value is -7.66 ± 6.8.

In the case of `CC(C)[C@H](CO)Nc1nc(Nc2ccc(C(=O)O)c(Cl)c2)c2ncn(C(C)C)c2n1` [Purvalanol B], the “robust z score of cell number” value is 4.87 ± 4.9. Regarding `Cn1cnnc1Sc1c([N+](=O)[O-])ncn1C`, the “robust z score of cell number” value is -38.2 ± 23.

For the compound `CN(C)c1nc(N)c(C(=O)Nc2cccnc2)nc1Cl` [ACDPP hydrochloride], the “robust z score of cell number” value was -23 ± 22. Regarding `c1ccc(C(NCc2cccnc2)(c2ccccc2)c2ccccc2)cc1`, the “robust z score of cell number” value was -143 ± 110. For `Nc1ccc(-c2cccc3c(=O)cc(N4CCOCC4)oc23)cc1`, the “robust z score of cell number” value is -7.39 ± 2.8. For the compound `N[C@@H](CSC(c1ccccc1)(c1ccccc1)c1ccccc1)C(=O)O` [S-Trityl-L-cysteine], the “robust z score of cell number” value is -1.45 ± 4.7.

For the compound `CC(C)[C@H](CO)Nc1nc(Nc2cc(N)cc(Cl)c2)c2ncn(C(C)C)c2n1` [Aminopurvalanol A], the “robust z score of cell number” value was -51.5 ± 28.

As for `N[C@H](C(=O)O)[C@H](OCc1ccccc1)C(=O)O` (racemic), the “robust z score of cell number” value is -7.23 ± 2. With `CC[N+](C)(CC)CC(=O)Nc1c(C)cccc1C` [N-Methyllidocaine iodide], the “robust z score of cell number” value was determined as 1.31 ± 1.1. For `COc1cc(-c2ccc(=O)[nH]n2)ccc1OC(F)F` [Zardaverine], the “robust z score of cell number” value is -2.91 ± 1.7.

In the case of `CCCC1O[C@@H]2C[C@H]3[C@@H]4CCC5=CC(=O)C=C[C@]5(C)[C@H]4[C@@H](O)C[C@]3(C)[C@]2(C(=O)CO)O1` (stereo partly specified) [Budesonide], the “robust z score of cell number” value was -79.7 ± 76. Turning to `O=C(Nc1ccc([N+](=O)[O-])cc1O)Nc1ccccc1Br`, the “robust z score of cell number” value is -13.8 ± 12.

The next assay has as its system mIMCD3. As to the kind of experiment: robust z cell number difference from vehicle control (robust z score difference); higher = more cells. Conditions: 10 µM; 48 h; siRNA: siRpgrip1l.
`CC(=N)NCc1cccc(CN)c1` [1400W dihydrochloride]: the “robust z cell number difference” value was -0.354. Take `O=C(O)/C=C/c1ccc(Cn2ccnc2)cc1` [Ozagrel hydrochloride]: the “robust z cell number difference” value was found to be 0.923.

For the compound `CC(=O)N[C@@H](Cc1c[nH]c2ccccc12)C(=O)OCc1cc(C(F)(F)F)cc(C(F)(F)F)c1`, the “robust z cell number difference” value is -2.25. On the same count and under the same terms, the result for `CO[C@@H]1[C@H](O)[C@@H](CO)O[C@H]1n1cnc2c(NC3CCCCC3)ncnc21` reads -9.55; that for `N#Cc1c(O)c2c(-c3ccc(-c4ccccc4O)cc3)csc2[nH]c1=O`, -7.47; that for `N[C@@H](CSC(c1ccccc1)(c1ccccc1)c1ccccc1)C(=O)O` [S-Trityl-L-cysteine], -4.84. `CC[N+](C)(CC)CC(=O)Nc1c(C)cccc1C` [N-Methyllidocaine iodide]: the “robust z cell number difference” value amounted to 1.59.
